Reference: publication PMC11486656
Results are given in words; binding and its absence hold for the method and conditions named. Some entries that bind do so weakly or less than the wild type. Sequences can lack the tags named with a protein.

Target: T1, His6-I3-mEos3.2 (UniProt O60927)
T1 sequence: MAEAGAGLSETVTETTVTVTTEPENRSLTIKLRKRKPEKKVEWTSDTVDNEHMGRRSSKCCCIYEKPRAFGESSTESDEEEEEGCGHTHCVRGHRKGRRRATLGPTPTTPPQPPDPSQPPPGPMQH
Experiment: co-purification (NiNTA affinity, ion exchange, SEC); SDS22, PP1 and His6-I3-mEos3.2 expressed together in High Five insect cells; His6 tag on I3-mEos3.2

B1: SDS22 (protein, UniProt Q15435 1-360)
chain: MAAERGAGQQQSQEMMEVDRRVESEESGDEEGKKHSSGIVADLSEQSLKDGEERGEEDPEEEHELPVDMETINLDRDAEDVDLNHYRIGKIEGFEVLKKVKTLCLRQNLIKCIENLEELQSLRELDLYDNQIKKIENLEALTELEILDISFNLLRNIEGVDKLTRLKKLFLVNNKISKIENLSNLHQLQMLELGSNRIRAIENIDTLTNLESLFLGKNKITKLQNLDALTNLTVLSMQSNRLTKIEGLQNLVNLRELYLSHNGIEVIEGLENNNKLTMLDIASNRIKKIENISHLTELQEFWMNDNLLESWSDLDELKGARSLETVYLERNPLQKDPQYRRKVMLALPSVRQIDATFVRF
- binding: binds
